Test results reported in US6815546B2, “Analogues of camptothecin, their use as medicaments and the pharmaceutical compositions containing them” (Societe de Recherches et d'Applications Scientifiques …, priority 1995, dated 2004).
Some entries share one result that the patent states for a list of compounds.

target: T1, DNA topoisomerase 1 of purified calf thymus (Bos taurus, UniProt F1MN93); test: Relaxation activity test of DNA induced by topoisomerase 1; format: biochemical; conditions: 10 μM, 100 μM, 200 μM and 500 μM
T1 construct: DNA topoisomerase 1 of purified calf thymus (Gibco-BRL, Paisley, United Kingdom); purchased Gibco-BRL, Paisley, United Kingdom; host or cells: calf thymus tissue
T1 sequence (F1MN93 1-767): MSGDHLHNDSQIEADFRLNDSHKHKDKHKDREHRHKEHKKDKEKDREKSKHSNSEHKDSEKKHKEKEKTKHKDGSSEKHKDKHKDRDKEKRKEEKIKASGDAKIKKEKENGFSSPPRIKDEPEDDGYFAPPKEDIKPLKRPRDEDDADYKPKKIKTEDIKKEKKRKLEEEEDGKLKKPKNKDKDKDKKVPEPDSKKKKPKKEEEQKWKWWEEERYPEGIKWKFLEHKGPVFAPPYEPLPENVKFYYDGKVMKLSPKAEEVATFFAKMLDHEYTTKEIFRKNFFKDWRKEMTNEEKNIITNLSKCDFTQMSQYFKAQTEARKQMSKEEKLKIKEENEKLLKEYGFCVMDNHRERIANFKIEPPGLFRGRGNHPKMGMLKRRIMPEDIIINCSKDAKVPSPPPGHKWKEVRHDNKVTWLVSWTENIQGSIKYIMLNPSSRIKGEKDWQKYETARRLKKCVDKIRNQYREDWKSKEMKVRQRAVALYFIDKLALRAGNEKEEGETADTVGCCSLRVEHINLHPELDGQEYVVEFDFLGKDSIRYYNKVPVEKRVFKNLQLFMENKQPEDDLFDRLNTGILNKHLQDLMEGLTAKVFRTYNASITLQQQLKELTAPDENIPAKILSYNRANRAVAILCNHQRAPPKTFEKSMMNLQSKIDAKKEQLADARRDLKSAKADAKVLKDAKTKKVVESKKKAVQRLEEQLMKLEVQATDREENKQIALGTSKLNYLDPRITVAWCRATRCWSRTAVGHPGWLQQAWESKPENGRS
Protocol: 1. Relaxation Activity Test of DNA Induced by Topoisomerase 1
All the reactions are carried out in a 20 μl reaction buffer constituted by 50 mM of Tris-HCl (pH 7.5), 50 mM of KCl, 0.5 mM of dithiothreitol, 10 mM of MgCl2, 0.1 mM of ethyldiamine tetraacetic acid (EDTA), 30 μg/ml of bovine serum albumin and 300 ng of supercoiled pUC19 (Pharmacia Biotech, Orsay, France) with or without the compounds to be tested at defined concentrations. All the compounds to be tested are initially dissolved in dimethylsulphoxide (DMSO) at 50 mM, the other dilutions being carried out with distilled water. […] The reaction is initiated by the addition of a unit of DNA topoisomerase 1 of purified calf thymus (Gibco-BRL, Paisley, United Kingdom) and is carried out for 15 minutes at 37° C. The reactions are stopped by the addition of 3 μl of a mixture containing 1% dodecyl sodium sulphate at 1%, 20 mM of EDTA and 500 μg/ml of K proteinase (Boehringer Mannheim, Meylan, France). After an additional incubation period of 30 minutes at 37° C., 2 μl of a loading buffer containing 10 mM of Na2HPO4, 0.3% of bromophenol blue et 16% Ficoll are added to samples which are subjected to electrophoresis in agarose gels at 1.2% at 1 V/cm for 20 hours in a buffer containing 36 mM of Tris-HCl at pH 7.8, 30 mM of Na2HPO4, 1 mM of EDTA and 2 μg/ml of chloroquine. The gels are stained with 2 μg/ml of ethidium bromide, photographed under UV light at 312 nm with a camera and the fluorescent intensity is measured with a bioProfil camera (Vilber Lournat, Lyon, France) with a view to determining the percentage of relaxed DNA. Each experiment is carried out at least three times in duplicate.
In each experiment, the supercoiled plasmid DNA is incubated alone or with topoisomerase 1. The reaction is completed within 15 minutes. For each compound to be tested or control, the supercoiled plasmid DNA is incubated in the presence of 500 μM of compound to be tested with enzyme or without enzyme plus the compound to be tested, at concentrations of 10 μM, 100 μM, 200 μM and 500 μM.

Structure (SMILES) | inhibition of the relaxation activity encouraged by topoisomerase 1
CCOC(=O)CC(O)(CC)c1cc2n(c(=O)c1CO)Cc1cc3ccccc3nc1-2 (stereo not drawn) [Example 2, ethyl 3-hydroxy-3-[8-(hydroxymethyl)-9-oxo-9,11-dihydroindolizino [1,2-b]quinolin-7-yl]pentanoate] | inhibit the relaxation activity encouraged by topoisomerase 1 in a dose-dependent manner
CCC(O)(CC(=O)O)c1cc2n(c(=O)c1CO)Cc1cc3ccccc3nc1-2 (stereo not drawn) [Example 4, 3-hydroxy-3-[8-(hydroxymethyl)-9-oxo-9,11-dihydroindolizino [1,2-b]quinolin-7-yl]pentanoic acid] | inhibit the relaxation activity encouraged by topoisomerase 1 in a dose-dependent manner
CCc1c2c(nc3ccccc13)-c1cc(C(O)(CC)CC(=O)O)c(CO)c(=O)n1C2 (stereo not drawn) [Example 10, 3-[12-ethyl-8-(hydroxymethyl)-9-oxo-9,11-dihydroindolizino[1,2-b]quinolin-7-yl]-3-hydroxypentanoic acid] | inhibit the relaxation activity encouraged by topoisomerase 1 in a dose-dependent manner
